Substitutions are numbered along the chain they refer to. No constants are given. Whether binding was seen depends on the method and setting. Binding seen in cells or lysates may run through a third protein. Tags and fused reporters may be left off the sequences shown.
Tests used:
Experiment in all cases: split reporter
[1] = target: T1, ADGRL4 Mutated Full-Length 1 (ADGRL4-FLmut1), H405A T407A, HA-tagged, C-terminal SmBiT (human) (UniProt Q9HBW9)
T1 sequence: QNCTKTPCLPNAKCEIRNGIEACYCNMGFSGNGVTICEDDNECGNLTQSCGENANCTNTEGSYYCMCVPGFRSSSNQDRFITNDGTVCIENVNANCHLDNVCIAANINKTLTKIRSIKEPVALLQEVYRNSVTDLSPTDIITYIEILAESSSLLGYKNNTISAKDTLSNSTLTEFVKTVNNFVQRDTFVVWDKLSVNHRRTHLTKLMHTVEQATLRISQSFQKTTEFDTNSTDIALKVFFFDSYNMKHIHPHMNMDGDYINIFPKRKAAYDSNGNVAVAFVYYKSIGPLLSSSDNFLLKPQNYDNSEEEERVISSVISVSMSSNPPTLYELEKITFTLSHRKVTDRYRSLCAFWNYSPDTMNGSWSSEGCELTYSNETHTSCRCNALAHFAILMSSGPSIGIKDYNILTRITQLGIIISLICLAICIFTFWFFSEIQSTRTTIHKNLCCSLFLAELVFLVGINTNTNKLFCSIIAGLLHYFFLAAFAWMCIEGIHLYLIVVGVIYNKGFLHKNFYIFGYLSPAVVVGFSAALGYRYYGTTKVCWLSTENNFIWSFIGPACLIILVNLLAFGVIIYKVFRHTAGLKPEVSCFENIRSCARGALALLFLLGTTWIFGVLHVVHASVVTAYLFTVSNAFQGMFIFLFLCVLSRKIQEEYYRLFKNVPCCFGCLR

By UniProt entry, the sequences of proteins in these tests, tags left out. Where a name states a change or a piece, a line headed by the entry shows the natural chain unless it says otherwise.
UniProt P49407, whole entry: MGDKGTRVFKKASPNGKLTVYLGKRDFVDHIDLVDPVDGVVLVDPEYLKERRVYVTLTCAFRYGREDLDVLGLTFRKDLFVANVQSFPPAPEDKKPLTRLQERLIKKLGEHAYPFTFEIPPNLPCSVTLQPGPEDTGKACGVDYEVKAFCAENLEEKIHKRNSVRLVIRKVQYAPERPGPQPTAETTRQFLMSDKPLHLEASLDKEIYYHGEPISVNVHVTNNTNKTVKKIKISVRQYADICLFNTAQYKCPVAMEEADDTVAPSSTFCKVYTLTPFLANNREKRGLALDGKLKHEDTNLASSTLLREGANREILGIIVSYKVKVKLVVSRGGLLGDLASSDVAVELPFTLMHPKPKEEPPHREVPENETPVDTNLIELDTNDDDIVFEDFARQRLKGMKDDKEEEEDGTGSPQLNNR

[2] = target: T2, ADGRL4 C-terminal Fragment 1 (ADGRL4-CTF1), HA-tagged, C-terminal SmBiT (human) (UniProt Q9HBW9)
T2 sequence: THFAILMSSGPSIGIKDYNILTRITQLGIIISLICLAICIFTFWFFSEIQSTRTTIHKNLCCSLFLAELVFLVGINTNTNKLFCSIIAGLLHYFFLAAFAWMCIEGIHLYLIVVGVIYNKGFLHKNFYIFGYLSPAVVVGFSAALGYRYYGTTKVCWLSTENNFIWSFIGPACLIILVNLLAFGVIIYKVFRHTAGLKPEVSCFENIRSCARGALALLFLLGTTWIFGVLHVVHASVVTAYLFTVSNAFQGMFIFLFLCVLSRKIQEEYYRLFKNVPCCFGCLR

[3] = target: T3, ADGRL4 Full-Length 1 (ADGRL4-FL1), HA-tagged, C-terminal SmBiT (human) (UniProt Q9HBW9)
T3 sequence: T1 sequence with A386H, A388T

| binding [1] | binding [2] | binding [3] | Substance |
| --- | --- | --- | --- |
| no binding | no binding | no binding | LgBiT-βarr2 (β-arrestin 2) (from UniProt P32121 1-409) |
| no binding | no binding | no binding | LgBiT-βarr1 (β-arrestin 1) (from UniProt P49407 1-418) |
